This is an account of results in the supplement of paper PMC11732987, “Enantioselective OTUD7B fragment discovery through chemoproteomics screening and high-throughput optimisation” (Communications Chemistry, 2025).

Chains of the proteins cited; added tags and fusions are not shown. Lines headed by an entry give the natural chain unless they say otherwise; changes in a name come on top. Residues count along the entry.
UniProt P33176: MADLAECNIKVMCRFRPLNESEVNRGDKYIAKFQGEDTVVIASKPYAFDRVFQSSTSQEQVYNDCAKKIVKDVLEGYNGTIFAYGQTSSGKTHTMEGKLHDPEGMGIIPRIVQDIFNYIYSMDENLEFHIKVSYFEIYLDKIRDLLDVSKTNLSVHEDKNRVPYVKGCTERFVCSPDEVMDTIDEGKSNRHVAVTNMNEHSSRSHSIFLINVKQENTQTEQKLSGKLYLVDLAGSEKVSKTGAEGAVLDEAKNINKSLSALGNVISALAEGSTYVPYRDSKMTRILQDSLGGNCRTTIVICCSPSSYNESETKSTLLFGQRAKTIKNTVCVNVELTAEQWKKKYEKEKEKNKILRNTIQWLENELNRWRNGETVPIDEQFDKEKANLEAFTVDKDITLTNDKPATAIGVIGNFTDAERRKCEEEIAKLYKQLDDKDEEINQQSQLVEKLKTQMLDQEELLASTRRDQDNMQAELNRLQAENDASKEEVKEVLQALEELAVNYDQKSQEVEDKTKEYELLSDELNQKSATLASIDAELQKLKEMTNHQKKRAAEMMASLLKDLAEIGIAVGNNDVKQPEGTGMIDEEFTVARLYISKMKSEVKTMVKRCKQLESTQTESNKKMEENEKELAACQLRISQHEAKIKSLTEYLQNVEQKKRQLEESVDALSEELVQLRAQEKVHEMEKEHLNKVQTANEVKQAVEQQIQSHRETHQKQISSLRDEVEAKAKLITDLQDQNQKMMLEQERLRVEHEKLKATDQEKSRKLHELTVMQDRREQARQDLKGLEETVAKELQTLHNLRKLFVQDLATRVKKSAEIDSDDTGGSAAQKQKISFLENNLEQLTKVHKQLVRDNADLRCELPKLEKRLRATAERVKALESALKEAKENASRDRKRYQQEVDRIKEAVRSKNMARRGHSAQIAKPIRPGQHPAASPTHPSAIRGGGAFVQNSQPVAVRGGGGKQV
UniProt Q71RC2, 593-615: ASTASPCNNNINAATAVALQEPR
UniProt Q07954: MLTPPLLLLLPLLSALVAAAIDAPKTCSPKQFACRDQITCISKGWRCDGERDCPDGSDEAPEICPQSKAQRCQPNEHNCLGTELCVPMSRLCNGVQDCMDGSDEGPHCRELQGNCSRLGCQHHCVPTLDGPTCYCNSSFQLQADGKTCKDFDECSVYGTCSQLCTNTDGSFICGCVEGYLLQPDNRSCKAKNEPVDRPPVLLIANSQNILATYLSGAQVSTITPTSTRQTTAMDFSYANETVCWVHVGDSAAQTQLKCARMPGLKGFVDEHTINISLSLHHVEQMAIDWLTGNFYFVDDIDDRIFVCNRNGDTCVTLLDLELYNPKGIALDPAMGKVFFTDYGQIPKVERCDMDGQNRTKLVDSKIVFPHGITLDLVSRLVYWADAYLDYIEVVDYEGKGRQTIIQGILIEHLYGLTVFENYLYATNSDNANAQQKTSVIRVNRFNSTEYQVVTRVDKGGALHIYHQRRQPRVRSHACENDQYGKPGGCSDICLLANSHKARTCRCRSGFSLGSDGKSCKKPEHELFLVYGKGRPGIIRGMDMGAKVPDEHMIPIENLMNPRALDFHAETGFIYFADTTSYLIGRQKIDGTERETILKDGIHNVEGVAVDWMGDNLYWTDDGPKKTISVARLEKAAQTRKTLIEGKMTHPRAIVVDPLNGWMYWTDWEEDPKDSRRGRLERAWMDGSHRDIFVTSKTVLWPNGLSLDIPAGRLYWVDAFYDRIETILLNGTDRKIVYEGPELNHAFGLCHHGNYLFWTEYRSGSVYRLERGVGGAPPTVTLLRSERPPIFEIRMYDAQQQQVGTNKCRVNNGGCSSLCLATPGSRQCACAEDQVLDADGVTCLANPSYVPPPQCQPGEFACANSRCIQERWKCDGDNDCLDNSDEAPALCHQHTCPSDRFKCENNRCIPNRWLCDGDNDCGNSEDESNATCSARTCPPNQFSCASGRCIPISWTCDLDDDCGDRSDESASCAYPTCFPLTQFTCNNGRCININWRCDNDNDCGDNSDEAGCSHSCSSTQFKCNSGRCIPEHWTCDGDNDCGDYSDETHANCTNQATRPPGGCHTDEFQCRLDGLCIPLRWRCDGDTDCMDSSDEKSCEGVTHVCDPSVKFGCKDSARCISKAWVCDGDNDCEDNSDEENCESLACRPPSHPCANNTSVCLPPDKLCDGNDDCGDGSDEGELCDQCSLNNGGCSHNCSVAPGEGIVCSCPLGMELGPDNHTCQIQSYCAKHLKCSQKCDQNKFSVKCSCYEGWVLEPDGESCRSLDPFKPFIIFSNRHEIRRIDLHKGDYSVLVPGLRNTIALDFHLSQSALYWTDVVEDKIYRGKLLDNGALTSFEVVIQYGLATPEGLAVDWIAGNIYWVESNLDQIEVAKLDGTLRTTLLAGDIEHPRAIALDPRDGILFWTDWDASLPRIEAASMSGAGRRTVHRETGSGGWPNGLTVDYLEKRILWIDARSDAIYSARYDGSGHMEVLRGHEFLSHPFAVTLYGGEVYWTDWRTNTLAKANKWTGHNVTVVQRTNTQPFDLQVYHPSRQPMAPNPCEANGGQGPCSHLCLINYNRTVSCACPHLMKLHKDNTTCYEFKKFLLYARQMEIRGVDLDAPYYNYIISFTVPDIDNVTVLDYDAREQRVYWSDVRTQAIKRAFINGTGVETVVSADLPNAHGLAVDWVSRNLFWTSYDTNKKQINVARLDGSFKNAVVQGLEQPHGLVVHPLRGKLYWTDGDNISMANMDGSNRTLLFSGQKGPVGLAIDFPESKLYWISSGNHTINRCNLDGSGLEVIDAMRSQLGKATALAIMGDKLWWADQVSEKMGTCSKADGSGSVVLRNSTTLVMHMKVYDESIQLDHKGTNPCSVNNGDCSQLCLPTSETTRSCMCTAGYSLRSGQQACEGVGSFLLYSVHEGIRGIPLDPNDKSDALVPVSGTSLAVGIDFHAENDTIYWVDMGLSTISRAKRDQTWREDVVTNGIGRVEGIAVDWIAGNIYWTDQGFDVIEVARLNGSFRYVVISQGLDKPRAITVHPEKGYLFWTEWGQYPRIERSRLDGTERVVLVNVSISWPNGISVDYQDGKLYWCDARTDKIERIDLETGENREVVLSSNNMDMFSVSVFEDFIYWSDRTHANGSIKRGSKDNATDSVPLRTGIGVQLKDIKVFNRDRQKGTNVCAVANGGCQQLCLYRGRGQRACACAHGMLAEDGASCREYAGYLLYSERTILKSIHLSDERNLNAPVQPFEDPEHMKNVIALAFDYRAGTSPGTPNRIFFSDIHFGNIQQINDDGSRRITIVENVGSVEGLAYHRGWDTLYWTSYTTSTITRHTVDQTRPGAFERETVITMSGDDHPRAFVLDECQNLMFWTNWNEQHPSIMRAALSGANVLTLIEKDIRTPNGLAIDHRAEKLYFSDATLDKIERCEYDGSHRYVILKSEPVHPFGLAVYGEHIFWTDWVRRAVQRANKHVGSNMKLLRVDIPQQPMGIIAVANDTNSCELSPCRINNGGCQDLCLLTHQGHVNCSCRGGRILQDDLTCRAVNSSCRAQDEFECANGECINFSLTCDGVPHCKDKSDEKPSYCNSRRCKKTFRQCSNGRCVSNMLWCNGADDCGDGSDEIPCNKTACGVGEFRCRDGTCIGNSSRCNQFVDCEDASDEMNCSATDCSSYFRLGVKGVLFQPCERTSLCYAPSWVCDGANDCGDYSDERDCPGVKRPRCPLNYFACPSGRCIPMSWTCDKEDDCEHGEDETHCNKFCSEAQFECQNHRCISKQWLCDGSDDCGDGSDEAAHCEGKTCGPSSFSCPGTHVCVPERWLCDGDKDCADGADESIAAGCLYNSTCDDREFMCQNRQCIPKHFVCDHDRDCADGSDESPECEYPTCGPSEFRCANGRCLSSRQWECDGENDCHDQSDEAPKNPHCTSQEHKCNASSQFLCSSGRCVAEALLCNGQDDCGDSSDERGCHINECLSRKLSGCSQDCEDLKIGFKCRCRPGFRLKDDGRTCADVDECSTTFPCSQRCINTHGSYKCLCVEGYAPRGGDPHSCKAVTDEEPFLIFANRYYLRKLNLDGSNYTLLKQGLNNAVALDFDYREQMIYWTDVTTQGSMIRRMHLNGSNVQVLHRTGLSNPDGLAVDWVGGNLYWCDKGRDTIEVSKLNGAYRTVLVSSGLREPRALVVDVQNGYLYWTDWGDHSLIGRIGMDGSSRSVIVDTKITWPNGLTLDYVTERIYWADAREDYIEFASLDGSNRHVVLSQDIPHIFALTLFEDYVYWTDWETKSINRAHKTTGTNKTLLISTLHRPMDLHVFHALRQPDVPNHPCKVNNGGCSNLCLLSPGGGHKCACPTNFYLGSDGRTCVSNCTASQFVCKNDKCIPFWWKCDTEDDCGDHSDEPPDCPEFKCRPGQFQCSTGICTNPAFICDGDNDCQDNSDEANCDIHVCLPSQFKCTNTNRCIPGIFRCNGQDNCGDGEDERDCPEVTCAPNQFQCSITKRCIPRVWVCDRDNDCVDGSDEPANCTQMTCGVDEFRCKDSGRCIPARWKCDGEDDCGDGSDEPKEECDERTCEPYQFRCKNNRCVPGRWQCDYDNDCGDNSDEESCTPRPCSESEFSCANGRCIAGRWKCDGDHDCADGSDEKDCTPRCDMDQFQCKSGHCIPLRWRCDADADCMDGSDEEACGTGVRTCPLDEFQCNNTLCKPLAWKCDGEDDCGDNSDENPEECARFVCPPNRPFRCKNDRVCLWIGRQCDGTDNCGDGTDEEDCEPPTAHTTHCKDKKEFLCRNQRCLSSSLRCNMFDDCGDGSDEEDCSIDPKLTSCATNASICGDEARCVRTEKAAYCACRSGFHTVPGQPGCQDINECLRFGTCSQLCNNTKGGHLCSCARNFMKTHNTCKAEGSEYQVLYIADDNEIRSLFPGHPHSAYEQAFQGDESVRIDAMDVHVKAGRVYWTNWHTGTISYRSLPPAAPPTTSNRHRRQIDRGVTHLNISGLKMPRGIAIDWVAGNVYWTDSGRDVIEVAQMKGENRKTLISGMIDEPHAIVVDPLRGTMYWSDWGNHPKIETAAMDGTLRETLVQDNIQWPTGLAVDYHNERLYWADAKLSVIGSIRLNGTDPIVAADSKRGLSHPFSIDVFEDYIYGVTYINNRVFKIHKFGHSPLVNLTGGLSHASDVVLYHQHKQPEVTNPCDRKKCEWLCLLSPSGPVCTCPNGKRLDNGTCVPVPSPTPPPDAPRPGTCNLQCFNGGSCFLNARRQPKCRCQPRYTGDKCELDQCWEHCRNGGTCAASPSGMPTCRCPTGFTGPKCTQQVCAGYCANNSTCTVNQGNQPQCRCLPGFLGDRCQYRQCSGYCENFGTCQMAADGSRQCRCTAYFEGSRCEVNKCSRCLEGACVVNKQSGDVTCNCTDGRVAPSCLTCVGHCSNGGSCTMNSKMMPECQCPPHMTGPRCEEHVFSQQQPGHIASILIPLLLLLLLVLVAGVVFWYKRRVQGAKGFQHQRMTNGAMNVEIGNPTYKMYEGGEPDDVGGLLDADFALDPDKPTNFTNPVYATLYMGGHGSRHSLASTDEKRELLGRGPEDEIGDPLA
UniProt P49916: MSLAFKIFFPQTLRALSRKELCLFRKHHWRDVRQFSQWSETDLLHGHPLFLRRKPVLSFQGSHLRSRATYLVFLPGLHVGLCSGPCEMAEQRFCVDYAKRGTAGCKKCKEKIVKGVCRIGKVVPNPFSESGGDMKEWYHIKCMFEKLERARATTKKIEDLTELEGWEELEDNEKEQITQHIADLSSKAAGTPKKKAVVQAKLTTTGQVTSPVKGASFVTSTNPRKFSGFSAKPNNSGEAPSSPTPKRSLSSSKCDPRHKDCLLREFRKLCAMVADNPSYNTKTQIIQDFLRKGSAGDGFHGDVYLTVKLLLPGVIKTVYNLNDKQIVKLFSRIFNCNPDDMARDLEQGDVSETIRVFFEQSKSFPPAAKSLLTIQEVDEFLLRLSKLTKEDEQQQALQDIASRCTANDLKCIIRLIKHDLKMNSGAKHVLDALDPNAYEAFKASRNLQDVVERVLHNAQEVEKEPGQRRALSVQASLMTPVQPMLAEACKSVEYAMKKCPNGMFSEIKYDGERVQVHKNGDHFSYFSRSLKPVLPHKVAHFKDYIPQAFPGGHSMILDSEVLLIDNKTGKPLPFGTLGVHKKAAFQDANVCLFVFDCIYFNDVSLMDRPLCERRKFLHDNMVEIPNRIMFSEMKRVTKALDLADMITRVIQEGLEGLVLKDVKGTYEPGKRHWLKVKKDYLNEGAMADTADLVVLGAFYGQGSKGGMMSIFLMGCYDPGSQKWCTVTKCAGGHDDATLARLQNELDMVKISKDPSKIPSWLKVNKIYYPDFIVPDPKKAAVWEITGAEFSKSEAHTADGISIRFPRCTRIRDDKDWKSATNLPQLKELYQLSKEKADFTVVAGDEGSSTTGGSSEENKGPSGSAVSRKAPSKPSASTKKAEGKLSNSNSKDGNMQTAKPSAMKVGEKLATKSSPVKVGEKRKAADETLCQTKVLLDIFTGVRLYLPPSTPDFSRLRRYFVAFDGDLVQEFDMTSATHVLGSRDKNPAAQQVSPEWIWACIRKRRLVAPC
UniProt Q15031, 202-228: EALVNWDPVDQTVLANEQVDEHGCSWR

The other results are listed elsewhere or left out. The data scatter; read single values as rough.

Compound in one assay: ClCC(=O)N[C@H]1CCCc2ccccc12
The assay can be described thus: log2 mean competition ratio of IA-DTB cysteine labelling (DMSO/compound) (log2 ratio); higher = stronger cysteine engagement by compound. The conditions noted are these: 50 µM; treatment time: 4 h; cell line lysate: HEK293T. As for the experimental part: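 IA-DTB competitive cysteine chemoproteomics in HEK293T RIPA lysate. Lysates were treated with compound 29 or 30 at 50 or 200 µM for 4 h, then IA-DTB (500 µM, 1 h), trypsin-digested, NeutrAvidin-enriched and analysed by diaPASEF. Competition ratio = intensity DMSO / intensity compound (n=4 treated, n=64 DMSO); binding: mean log2 CR ≥ 1 and p ≤ 0.05 plus QC filters. Target is the cysteine site.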
LCP1 C460 (UniProt P13796): the “log2 mean competition ratio” value was determined as 0.381.

Consider KIF5B C65 (UniProt P33176), for which the “log2 mean competition ratio” value is 0.171.

Regarding LRBA C1921, the “log2 mean competition ratio” value is -0.421.

Turning to LARP4B C633 (UniProt Q92615), the “log2 mean competition ratio” value is 0.85.

For LACTB C476 (UniProt P83111), the “log2 mean competition ratio” value is 0.0055.

In the case of LARP4 C599 (UniProt Q71RC2), the “log2 mean competition ratio” value amounted to 0.423.

As for KIF7 C1229, the “log2 mean competition ratio” value was -0.0551.

Turning to KMT2D C5230 (UniProt O14686), the “log2 mean competition ratio” value was -0.859.

For the target LRP1 C2605 (UniProt Q07954), the “log2 mean competition ratio” value turned out to be 0.0153.

In the case of LRBA C2017, the “log2 mean competition ratio” value is -0.175.

Take LENG8 C600 (UniProt Q96PV6): the “log2 mean competition ratio” value stood at 0.103.

Regarding KNTC1 C475 (UniProt P50748), the “log2 mean competition ratio” value amounted to 0.125.

With KIFC1 C212 (UniProt Q9BW19), the “log2 mean competition ratio” value is -0.265.

KLC1 C236 (UniProt Q07866): the “log2 mean competition ratio” value was 0.333.

In the case of L3HYPDH C205 (UniProt Q96EM0), the “log2 mean competition ratio” value is -0.274.

In the case of LIG3 C729 (UniProt P49916), the “log2 mean competition ratio” value amounted to 0.209.

In the case of LARS1 C546, the “log2 mean competition ratio” value is 0.231.

As for LIMCH1 C333 (UniProt Q9UPQ0), the “log2 mean competition ratio” value is -0.107.

With LCLAT1 C304 (UniProt Q6UWP7), the “log2 mean competition ratio” value was -0.258.

Turning to KRIT1 C297 (UniProt O00522), the “log2 mean competition ratio” value was -0.276.

Take LONP1 C520 (UniProt P36776): the “log2 mean competition ratio” value worked out at 0.307.

As for LEF1 C321 (UniProt Q9UJU2), the “log2 mean competition ratio” value is -0.131.

In the case of LMOD1 C72, the “log2 mean competition ratio” value came out at 0.29.

For LIMA1 C316 (UniProt Q9UHB6), the “log2 mean competition ratio” value was -0.0417.

For LOC100421372 C227, the “log2 mean competition ratio” value turned out to be 0.416.

Consider LARS2 C225 (UniProt Q15031), for which the “log2 mean competition ratio” value was 0.165.

With LMO7 C261 (UniProt Q8WWI1), the “log2 mean competition ratio” value is -0.351.

Turning to KPNA6 C296 (UniProt O60684), the “log2 mean competition ratio” value came to 0.0437.

In the case of KLC4 C318 (UniProt Q9NSK0), the “log2 mean competition ratio” value is 0.407.

Turning to LEMD2 C355 (UniProt Q8NC56), the “log2 mean competition ratio” value amounted to 0.314.

On to KIZ C543 (UniProt Q2M2Z5), for which the “log2 mean competition ratio” value is 0.0414.

Turning to LEMD3 C814 (UniProt Q9Y2U8), the “log2 mean competition ratio” value is -0.7.

As for LIG1 C280 (UniProt P18858), the “log2 mean competition ratio” value was -0.195.

As to LIG3 C404 (UniProt P49916), the “log2 mean competition ratio” value came out at 0.0715.

As for LRP1 C2517 (UniProt Q07954), the “log2 mean competition ratio” value came to 0.0161.

For the target LRP1 C2561 (UniProt Q07954), the “log2 mean competition ratio” value amounted to 0.0638.

As to LDLRAP1 C119 (UniProt Q5SW96), the “log2 mean competition ratio” value amounted to 0.127.

Consider KIF5B C7 (UniProt P33176), for which the “log2 mean competition ratio” value is 0.142.

The same assay, now with this note: 200 µM; treatment time: 4 h; cell line lysate: HEK293T.
On to LCP1 C460 (UniProt P13796), for which the “log2 mean competition ratio” value was 0.075.

As to KIF5B C65 (UniProt P33176), the “log2 mean competition ratio” value was -0.121.

For LRBA C1921, the “log2 mean competition ratio” value was found to be 0.0504.

On to LARP4B C633 (UniProt Q92615), for which the “log2 mean competition ratio” value is 0.302.

As for LACTB C476 (UniProt P83111), the “log2 mean competition ratio” value was determined as 0.297.

As to LARP4 C599 (UniProt Q71RC2), the “log2 mean competition ratio” value came out at 0.0635.

For KIF7 C1229, the “log2 mean competition ratio” value stood at 0.147.

KMT2D C5230 (UniProt O14686): the “log2 mean competition ratio” value was -0.182.

For LRP1 C2605 (UniProt Q07954), the “log2 mean competition ratio” value worked out at 0.382.

As to LRBA C2017, the “log2 mean competition ratio” value was found to be 0.328.

LENG8 C600 (UniProt Q96PV6): the “log2 mean competition ratio” value came out at 0.0219.

Turning to KNTC1 C475 (UniProt P50748), the “log2 mean competition ratio” value is -0.413.

As to KIFC1 C212 (UniProt Q9BW19), the “log2 mean competition ratio” value was -0.0494.

Turning to KLC1 C236 (UniProt Q07866), the “log2 mean competition ratio” value is -0.139.

Take L3HYPDH C205 (UniProt Q96EM0): the “log2 mean competition ratio” value was -0.0722.

As to LIG3 C729 (UniProt P49916), the “log2 mean competition ratio” value is 0.0866.

Regarding LARS1 C546, the “log2 mean competition ratio” value stood at 0.351.

For LIMCH1 C333 (UniProt Q9UPQ0), the “log2 mean competition ratio” value is -0.0803.

Take LCLAT1 C304 (UniProt Q6UWP7): the “log2 mean competition ratio” value was -0.0488.

For KRIT1 C297 (UniProt O00522), the “log2 mean competition ratio” value came to 0.092.

As for LONP1 C520 (UniProt P36776), the “log2 mean competition ratio” value stood at 0.112.

As to LEF1 C321 (UniProt Q9UJU2), the “log2 mean competition ratio” value turned out to be 0.162.

LMOD1 C72: the “log2 mean competition ratio” value is -0.000902.

For LIMA1 C316 (UniProt Q9UHB6), the “log2 mean competition ratio” value was -0.489.

On to LOC100421372 C227, for which the “log2 mean competition ratio” value is -0.0521.

Consider LARS2 C225 (UniProt Q15031), for which the “log2 mean competition ratio” value was -0.027.

Take LMO7 C261 (UniProt Q8WWI1): the “log2 mean competition ratio” value was determined as 0.00924.

As for KPNA6 C296 (UniProt O60684), the “log2 mean competition ratio” value is -0.207.

With KLC4 C318 (UniProt Q9NSK0), the “log2 mean competition ratio” value is 0.586.

For the target LEMD2 C355 (UniProt Q8NC56), the “log2 mean competition ratio” value was -0.383.

For KIZ C543 (UniProt Q2M2Z5), the “log2 mean competition ratio” value came to 0.0529.

Consider LEMD3 C814 (UniProt Q9Y2U8), for which the “log2 mean competition ratio” value is -0.222.

Consider LIG1 C280 (UniProt P18858), for which the “log2 mean competition ratio” value is 0.0764.

With LIG3 C404 (UniProt P49916), the “log2 mean competition ratio” value worked out at 0.141.

As to LRP1 C2517 (UniProt Q07954), the “log2 mean competition ratio” value is 0.755.

Regarding LRP1 C2561 (UniProt Q07954), the “log2 mean competition ratio” value was found to be 0.629.

As for LDLRAP1 C119 (UniProt Q5SW96), the “log2 mean competition ratio” value was -0.00586.

Regarding KIF5B C7 (UniProt P33176), the “log2 mean competition ratio” value worked out at 0.0753.
